Experimental data as given in PMC12431657, “Discovery and mechanistic insights of dibenzoylmethane as a broad spectrum inhibitor of coronavirus” (PLOS Pathogens, 2025).
Where a name gives a salt, the structure may show the parent alone. Read-outs that look alike come from different tables or passages of the source. Among all 3,300 compounds or so, about 95 (3%) showed an effect of 50% or more. The list shows a part of the results.

Test system: HCoV-229E
Design: species or system Huh-7; HTS, protection from HCoV-229E induced cell death, luminescent cell viability (CellCounting-Lite 2.0), inhibition rate
Settings: 24 h post infection, 1 h compound pre-incubation, 10 µM, inhibitor

| Compound | 229E Inhibition rate [%] | 229E Inhibition rate (229E Inhibition rate, 24 h) [%] |
| --- | --- | --- |
| COc1ccc(-c2coc3cc(O)c(OC)c(O)c3c2=O)cc1O [Iristectorigenin A] | 24.5 | – |
| O=c1ccn([C@@H]2O[C@H](COP(=O)(O)O)[C@@H](O)[C@H]2O)c(=O)[nH]1 [Uridine 5'-monophosphate disodium salt] | – | 8 |
| C[N+](C)(C)CCOP(=O)([O-])OC[C@H](O)CO [sn-Glycero-3-phosphocholine] | 3.7 | – |
| CC1=CC(=O)[C@@H]2C[C@H]1C2(C)C [Verbenone] | 0 | – |
| O=C(/C=C/c1ccccc1)c1ccccc1 [trans-Chalcone] | – | 5.4 |
| CCOC(=O)CC(=O)O [3-Ethoxy-3-oxopropanoic acid] | 0 | – |
| O=C1CCc2ccccc2O1 [Dihydrocoumarin] | 45.1 | – |
| CC1=C(C/C=C(\C)CCC[C@H](C)CCC[C@H](C)CCCC(C)C)C(=O)c2ccccc2C1=O [Vitamin K1] | 11.9 | – |
| O=C(O)CC(O)CC(=O)O [3-Hydroxyglutaric acid] | 16.6 | – |
| NCCc1c[nH]cn1 [Histamine (phosphate)] | – | 8.3 |
| C=C(CCC(C(=O)O)[C@H]1[C@H](O)C[C@@]2(C)C3=CC[C@H]4C(C)(C)[C@@H](OC(C)=O)CC[C@]4(C)C3=CC[C@]12C)C(C)C (some centres unmarked) [Dehydropachymic acid] | 15.8 | – |
| O=C[C@H](O)[C@@H](O)[C@H](O)[C@H](O)COP(=O)(O)O [D-Glucose 6-phosphate (disodium salt)] | 7.6 | – |
| O=C(O)[C@H]1O[C@@H](Oc2cc3oc(-c4ccccc4)cc(=O)c3c(O)c2O)[C@H](O)[C@@H](O)[C@@H]1O [Baicalin] | 6.9 | – |
| N[C@@H](Cc1ccc(O)c(I)c1)C(=O)O [H-Tyr(3-I)-OH] | 9.3 | – |
| O=Cc1ccc(O)cc1 [p-Hydroxybenzaldehyde] | 10.9 | – |
| OC[C@H]1O[C@H](Oc2ccc(O)cc2)[C@H](O)[C@@H](O)[C@@H]1O [α-Arbutin] | 12.4 | – |
| O=C(CCCCCCCCc1ccc(O)cc1)c1c(O)cccc1O [Malabaricone B] | 23.4 | – |
| COC(=O)[C@@]1(C)CC[C@]2(C(=O)O)CC[C@]3(C)C(=CC[C@@H]4[C@@]5(C)C[C@H](O)[C@H](O)[C@@](C)(CO)[C@@H]5CC[C@]43C)[C@@H]2C1 [Phytolaccagenin] | 22.3 | – |
| CC1(C)[C@H]2CC[C@]1(C)C(=O)C2 [Camphor] | 9.3 | – |
| COc1c2ccoc2c(OC[C@@H](O)C(C)(C)O)c2oc(=O)ccc12 [Byakangelicin] | 15.1 | – |

Arranged by number of heavy atoms (ascending): 3 of the compounds above.

| Compound | 229E Inhibition rate [%] | 229E Inhibition rate (229E Inhibition rate, 24 h) [%] |
| --- | --- | --- |
| OC[C@H]1O[C@H](Oc2ccc(O)cc2)[C@H](O)[C@@H](O)[C@@H]1O [α-Arbutin] | 12.4 | – |
| O=c1ccn([C@@H]2O[C@H](COP(=O)(O)O)[C@@H](O)[C@H]2O)c(=O)[nH]1 [Uridine 5'-monophosphate disodium salt] | – | 8 |
| COC(=O)[C@@]1(C)CC[C@]2(C(=O)O)CC[C@]3(C)C(=CC[C@@H]4[C@@]5(C)C[C@H](O)[C@H](O)[C@@](C)(CO)[C@@H]5CC[C@]43C)[C@@H]2C1 [Phytolaccagenin] | 22.3 | – |
